Experimental data: patent publication US7323167B2, “Method of treatment with modified arginine deiminase” (Polaris Group, priority 1997, dated 2008)
At least one read-out could not be matched to a standard name with certainty.

Tested on: Mycoplasma arthritides arginine deiminase (ARTADIPRO, ATCC 23192), recombinant, expressed in E. coli, SEQ ID NO: 2
Assay: Kinetic characterization (Km, Vmax, affinity) of recombinant ADI with arginine, quantifying citrulline production
Format: biochemical
Details: high affinity; one value for the proteins of the three Mycoplasma species; methods known to those skilled in the art

N=C(N)NCCC[C@H](N)C(=O)O [arginine, L-arginine]
Km: 40 nM
